Experimental findings from patent US20140011978A1 are described below.

The chains behind the UniProt entries cited, without tags or fusion partners. Residues count along the entry.
UniProt P01127, residues 82-190: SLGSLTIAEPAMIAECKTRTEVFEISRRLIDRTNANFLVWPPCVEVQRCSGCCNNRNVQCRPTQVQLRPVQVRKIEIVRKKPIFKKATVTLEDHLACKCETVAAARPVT
UniProt P24821, residues 895-1074: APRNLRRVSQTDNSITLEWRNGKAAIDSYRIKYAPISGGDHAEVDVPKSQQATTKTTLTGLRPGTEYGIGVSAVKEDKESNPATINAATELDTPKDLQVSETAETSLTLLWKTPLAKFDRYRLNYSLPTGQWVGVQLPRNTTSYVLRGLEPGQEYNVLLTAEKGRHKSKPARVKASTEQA

The target in experiment [1] is T1, VEGF-B (UniProt P49765).
T1 sequence (looked up): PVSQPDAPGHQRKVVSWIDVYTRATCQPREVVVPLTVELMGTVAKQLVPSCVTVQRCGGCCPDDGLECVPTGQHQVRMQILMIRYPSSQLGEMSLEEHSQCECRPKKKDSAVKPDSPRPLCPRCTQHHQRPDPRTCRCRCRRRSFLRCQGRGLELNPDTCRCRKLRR
The experiment is described as follows: ELISA, cytokine coated (50 nM), 100 nM TNC III1-5, HRP-anti-HIS.

The target of the next experiment is T2, PlGF-1 (UniProt P49763).
T2 sequence (looked up): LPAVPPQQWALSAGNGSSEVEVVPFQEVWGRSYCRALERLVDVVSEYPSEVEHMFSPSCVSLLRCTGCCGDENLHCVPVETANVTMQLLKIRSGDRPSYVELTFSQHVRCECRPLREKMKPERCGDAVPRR
The experiment is described as follows: ELISA: cytokine coated (50 nM), 100 nM TNC III1-5 in solution, HRP-anti-His, A450. (ELISA stands for enzyme-linked immunosorbent assay.)

Experiment [2] has as its target T1, VEGF-B. The experiment is described as follows: ELISA: cytokine coated (50 nM), 100 nM TNC III1-5 in solution, HRP-anti-His, A450; black bars without, white bars with 4 µM heparin.
The next experiment addresses PDGF-BB (UniProt P01127). Put plainly: ELISA: GST-fused TNC domains, GST and BSA coated, 2 nM PDGF-BB in solution, anti-PDGF-BB antibody and HRP secondary, A450.

These are yes or no findings as the source states them, for the method shown. Some results given as binding are weak or reduced against the parent protein; the word gives no strength.

Take “TNC III1-5 (from UniProt P24821 622-1074)”: the results for the binding result with VEGF-B [1], with PlGF-1 and with VEGF-B [2] were “binds”, “no binding (tested: 100 nM)” and “binds”, respectively.

“TNC III4-5 (from UniProt P24821 895-1074)”: in the experiment with PDGF-BB, the binding entry is “binds”.
